# The supplement of paper PMC8728848
# This is one part of the list.
# Tests used:
# Test in all cases: glycan array binding signal (z-score within array); higher = stronger binding
# Conditions in all cases: glycan notation: IUPAC condensed, linker removed
# [1] = biological target: Neu5Ac(a2-6)Gal(b1-4)GlcNAc(b1-3)Gal(b1-4)GlcNAc(b1-3)GalNAc
# How it was run: (§1)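 The binding signal is a Z-score computed within each array and averaged over linkers. Arrays of the same protein sequence at different concentrations or buffers were also averaged together. Data originate from 3228 arrays in the Consortium for Functional Glycomics database, kept only where the protein sequence was available.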
# [2] = biological target: Neu5Ac(a2-6)Gal(b1-4)GlcNAc(b1-3)Gal(b1-4)GlcNAc(b1-3)[Neu5Ac(a2-6)Gal(b1-4)GlcNAc(b1-3)Gal(b1-4)GlcNAc(b1-6)]GalNAc
# How it was run: as §1
# [3] = biological target: Neu5Ac(a2-6)Gal(b1-4)GlcNAc(b1-3)Gal(b1-4)GlcNAc(b1-6)[Gal(b1-3)]GalNAc
# How it was run: as §1
# [4] = biological target: Neu5Ac(a2-6)Gal(b1-4)GlcNAc(b1-3)Gal(b1-4)[Fuc(a1-3)]GlcNAc(b1-3)Gal(b1-4)[Fuc(a1-3)]GlcNAc
# How it was run: as §1
# [5] = biological target: Neu5Ac(a2-6)Gal(b1-4)GlcNAc(b1-3)GalNAc
# How it was run: as §1
# [6] = biological target: Neu5Ac(a2-6)Gal(b1-4)GlcNAc(b1-3)[Neu5Ac(a2-6)Gal(b1-4)GlcNAc(b1-6)]GalNAc
# How it was run: as §1
# [7] = biological target: Neu5Ac(a2-6)Gal(b1-4)GlcNAc(b1-6)GalNAc
# How it was run: as §1
# [8] = biological target: Neu5Ac(a2-6)Gal(b1-4)GlcNAc(b1-6)[Gal(b1-3)GlcNAc(b1-3)]Gal(b1-4)Glc
# How it was run: as §1
# [9] = biological target: Neu5Ac(a2-6)Gal(b1-4)GlcNAc(b1-6)[Gal(b1-3)]GalNAc
# How it was run: as §1
# [10] = biological target: Neu5Ac(a2-6)Gal(b1-4)GlcNAc6S
# How it was run: as §1
# [11] = biological target: Neu5Ac(a2-6)GalNAc
# How it was run: as §1
# [12] = biological target: Neu5Ac(a2-6)GalNAc(b1-4)GlcNAc
# How it was run: as §1
# [13] = biological target: Neu5Ac(a2-6)GalNAc(b1-4)GlcNAc6S
# How it was run: as §1
# [14] = biological target: Neu5Ac(a2-6)GlcNAc(b1-4)GlcNAc
# How it was run: as §1
# [15] = biological target: Neu5Ac(a2-6)GlcNAc(b1-4)GlcNAc(b1-4)GlcNAc
# How it was run: as §1
# [16] = biological target: Neu5Ac(a2-8)Neu5Ac
# How it was run: as §1
# [17] = biological target: Neu5Ac(a2-8)Neu5Ac(a2-3)Gal(b1-3)GalNAc(b1-4)[Neu5Ac(a2-3)]Gal(b1-4)Glc
# How it was run: as §1
# [18] = biological target: Neu5Ac(a2-8)Neu5Ac(a2-3)Gal(b1-3)GalNAc(b1-4)[Neu5Ac(a2-8)Neu5Ac(a2-3)]Gal(b1-4)Glc
# How it was run: as §1
# [19] = biological target: Neu5Ac(a2-8)Neu5Ac(a2-3)Gal(b1-4)Glc
# How it was run: as §1
# [20] = biological target: Neu5Ac(a2-8)Neu5Ac(a2-3)Gal(b1-4)GlcNAc
# How it was run: as §1
# [21] = biological target: Neu5Ac(a2-8)Neu5Ac(a2-3)[Gal(b1-3)GalNAc(b1-4)]Gal(b1-4)Glc
# How it was run: as §1
# [22] = biological target: Neu5Ac(a2-8)Neu5Ac(a2-3)[GalNAc(b1-4)]Gal(b1-4)Glc
# How it was run: as §1
# [23] = biological target: Neu5Ac(a2-8)Neu5Ac(a2-8)Neu5Ac
# How it was run: as §1
# [24] = biological target: Neu5Ac(a2-8)Neu5Ac(a2-8)Neu5Ac(a2-3)Gal(b1-4)Glc
# How it was run: as §1
# [25] = biological target: Neu5Ac(a2-8)Neu5Ac(a2-8)Neu5Ac(a2-3)[Gal(b1-3)GalNAc(b1-4)]Gal(b1-4)Glc
# How it was run: as §1
# [26] = biological target: Neu5Ac(a2-8)Neu5Ac(a2-8)Neu5Ac(a2-3)[GalNAc(b1-4)]Gal(b1-4)Glc
# How it was run: as §1
# [27] = biological target: Neu5Ac(a2-8)Neu5Ac(a2-8)Neu5Ac(a2-8)Neu5Ac(a2-3)[GalNAc(b1-4)]Gal(b1-4)Glc
# How it was run: as §1
# [28] = biological target: Neu5Ac(a2-8)Neu5Gc(a2-3)Gal(b1-4)GlcNAc
# How it was run: as §1
# [29] = biological target: Neu5Ac(b2-6)Gal(b1-4)GlcNAc
# How it was run: as §1
# [30] = biological target: Neu5Ac(b2-6)GalNAc
# How it was run: as §1
# [31] = biological target: Neu5Ac9Ac(a2-3)Gal(b1-3)GlcNAc
# How it was run: as §1
# [32] = biological target: Neu5Ac9Ac(a2-3)Gal(b1-4)GlcNAc
# How it was run: as §1
# [33] = biological target: Neu5Ac9Ac(a2-6)Gal(b1-4)GlcNAc
# How it was run: as §1
# [34] = biological target: Neu5Gc(a2-3)Gal(b1-3)GlcNAc
# How it was run: as §1
# [35] = biological target: Neu5Gc(a2-3)Gal(b1-3)[Fuc(a1-4)]GlcNAc
# How it was run: as §1
# [36] = biological target: Neu5Gc(a2-3)Gal(b1-4)Glc
# How it was run: as §1
# [37] = biological target: Neu5Gc(a2-3)Gal(b1-4)GlcNAc
# How it was run: as §1
# [38] = biological target: Neu5Gc(a2-3)Gal(b1-4)GlcNAc(b1-3)Gal(b1-4)GlcNAc(b1-2)Man(a1-3)[Neu5Gc(a2-3)Gal(b1-4)GlcNAc(b1-3)Gal(b1-4)GlcNAc(b1-2)Man(a1-6)]Man(b1-4)GlcNAc(b1-4)GlcNAc
# How it was run: as §1
# [39] = biological target: Neu5Gc(a2-3)Gal(b1-4)[Fuc(a1-3)]GlcNAc
# How it was run: as §1
# [40] = biological target: Neu5Gc(a2-6)Gal(b1-4)GlcNAc
# How it was run: as §1
# [41] = biological target: Neu5Gc(a2-6)GalNAc
# How it was run: as §1
# [42] = biological target: Neu5Gc(a2-8)Neu5Ac(a2-3)Gal(b1-4)GlcNAc
# How it was run: as §1
# [43] = biological target: Neu5Gc(a2-8)Neu5Gc(a2-3)Gal(b1-4)GlcNAc
# How it was run: as §1
# [44] = biological target: Neu5Gc(a2-8)Neu5Gc(a2-3)Gal(b1-4)GlcNAc(b1-3)Gal(b1-4)GlcNAc
# How it was run: as §1
# [45] = biological target: Neu5Gc(a2-8)Neu5Gc(a2-6)Gal(b1-4)GlcNAc
# How it was run: as §1
# [46] = biological target: Neu5Gc(b2-6)Gal(b1-4)GlcNAc
# How it was run: as §1
binder,measurement,setting,value
GS7807I-bvu-563-22-563 (Bacteroides vulgatus) (protein) IFSSCTDDFEKLNTSNIQVDPADLPFAAQCTEPMTYCYPPQQNMFQFWTNLTIDLYGGYFMTPNGNFTNGDMGENRGHSGGMYENYYLHIFNNTRRIIAQCDASGERGLSGVMRIVQAYGTLMTTDAYGPIPYSSILSGENEVYFEFDSQKDLYKAMLEDLSTAITDISAMGADEIAKLKSFDCWCNGDKDLWVKIANTMKLRMALRLSKRETEAGNAGMNLKAIATEAAQNTLATVNKDILIDKSLENEMWLMFNWGDCGFNANLVTIMSGTKDPRQPLYMTLNTGDIKNEAGTTTVAANSQYLGIRFASGLPAKPNSWGNFSGWIQGNNGSSYSMPLPIMKAAEAYFLLAEAKLRWDIGSESVKNLYENGIRVSMTNELAYRGAYAGIKEYPEGAVDAYINGTSTQIDYTDPIKAELSTPAVNKLSVKWDESASNEEKLERIITQKWLALFPLSTEGWAEQRRTGYPRFFPAFVNESNGAVNTEEGVRRVIYSSQAYDANAKGVEGGIKLLDEENSSKFGISGDKGGTHLWWDNADKGNF,glycan array binding signal (z-score),[1],-0.291
same,glycan array binding signal (z-score),[2],0.08
same,glycan array binding signal (z-score),[3],0.992
same,glycan array binding signal (z-score),[4],-0.899
same,glycan array binding signal (z-score),[5],0.534
same,glycan array binding signal (z-score),[6],0.155
same,glycan array binding signal (z-score),[7],0.617
same,glycan array binding signal (z-score),[8],0.231
same,glycan array binding signal (z-score),[9],1.67
same,glycan array binding signal (z-score),[10],0.931
same,glycan array binding signal (z-score),[11],-0.596
same,glycan array binding signal (z-score),[12],0.904
same,glycan array binding signal (z-score),[13],0.01
same,glycan array binding signal (z-score),[14],0.338
same,glycan array binding signal (z-score),[15],-0.353
same,glycan array binding signal (z-score),[16],-0.841
same,glycan array binding signal (z-score),[17],-0.4
same,glycan array binding signal (z-score),[18],0.202
same,glycan array binding signal (z-score),[19],-0.815
same,glycan array binding signal (z-score),[20],-1.14
same,glycan array binding signal (z-score),[21],-1.22
same,glycan array binding signal (z-score),[22],-0.73
same,glycan array binding signal (z-score),[23],-0.325
same,glycan array binding signal (z-score),[24],0.406
same,glycan array binding signal (z-score),[25],-0.112
same,glycan array binding signal (z-score),[26],-0.995
same,glycan array binding signal (z-score),[27],0.09
same,glycan array binding signal (z-score),[28],-0.153
same,glycan array binding signal (z-score),[29],-0.47
same,glycan array binding signal (z-score),[30],-1.47
same,glycan array binding signal (z-score),[31],0.259
same,glycan array binding signal (z-score),[32],0.474
same,glycan array binding signal (z-score),[33],-0.67
same,glycan array binding signal (z-score),[34],-0.318
same,glycan array binding signal (z-score),[35],1.23
same,glycan array binding signal (z-score),[36],-1.04
same,glycan array binding signal (z-score),[37],-1.32
same,glycan array binding signal (z-score),[38],-0.981
same,glycan array binding signal (z-score),[39],-1.27
same,glycan array binding signal (z-score),[40],-0.874
same,glycan array binding signal (z-score),[41],-0.534
same,glycan array binding signal (z-score),[42],0.615
same,glycan array binding signal (z-score),[43],-1.24
same,glycan array binding signal (z-score),[44],0.112
same,glycan array binding signal (z-score),[45],-0.625
same,glycan array binding signal (z-score),[46],-0.415

# Shown with tabs: entries from further up
binder	measurement	setting	value
GS7807I-bvu-563-22-563 (Bacteroides vulgatus) (protein) IFSSCTDDFEKLNTSNIQVDPADLPFAAQCTEPMTYCYPPQQNMFQFWTNLTIDLYGGYFMTPNGNFTNGDMGENRGHSGGMYENYYLHIFNNTRRIIAQCDASGERGLSGVMRIVQAYGTLMTTDAYGPIPYSSILSGENEVYFEFDSQKDLYKAMLEDLSTAITDISAMGADEIAKLKSFDCWCNGDKDLWVKIANTMKLRMALRLSKRETEAGNAGMNLKAIATEAAQNTLATVNKDILIDKSLENEMWLMFNWGDCGFNANLVTIMSGTKDPRQPLYMTLNTGDIKNEAGTTTVAANSQYLGIRFASGLPAKPNSWGNFSGWIQGNNGSSYSMPLPIMKAAEAYFLLAEAKLRWDIGSESVKNLYENGIRVSMTNELAYRGAYAGIKEYPEGAVDAYINGTSTQIDYTDPIKAELSTPAVNKLSVKWDESASNEEKLERIITQKWLALFPLSTEGWAEQRRTGYPRFFPAFVNESNGAVNTEEGVRRVIYSSQAYDANAKGVEGGIKLLDEENSSKFGISGDKGGTHLWWDNADKGNF	glycan array binding signal (z-score)	[19]	-0.815
same	glycan array binding signal (z-score)	[20]	-1.14
same	glycan array binding signal (z-score)	[21]	-1.22
